## Library screen at single concentrations

Protein sequences, listed by entry. Tags and fused reporters are not part of them.
UniProt P9WPC5, whole entry: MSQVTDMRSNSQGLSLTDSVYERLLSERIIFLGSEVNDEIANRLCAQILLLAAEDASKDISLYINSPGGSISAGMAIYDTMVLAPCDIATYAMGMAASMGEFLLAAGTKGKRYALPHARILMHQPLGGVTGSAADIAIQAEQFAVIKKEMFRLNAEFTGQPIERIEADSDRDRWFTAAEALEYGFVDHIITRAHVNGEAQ
UniProt P9WPC3, whole entry partner: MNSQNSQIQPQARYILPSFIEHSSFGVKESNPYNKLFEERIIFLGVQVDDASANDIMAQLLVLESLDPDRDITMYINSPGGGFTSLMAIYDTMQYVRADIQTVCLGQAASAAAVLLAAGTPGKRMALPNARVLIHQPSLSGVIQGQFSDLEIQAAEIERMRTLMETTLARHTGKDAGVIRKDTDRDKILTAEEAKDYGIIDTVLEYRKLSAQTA
UniProt I6X8D2, whole entry: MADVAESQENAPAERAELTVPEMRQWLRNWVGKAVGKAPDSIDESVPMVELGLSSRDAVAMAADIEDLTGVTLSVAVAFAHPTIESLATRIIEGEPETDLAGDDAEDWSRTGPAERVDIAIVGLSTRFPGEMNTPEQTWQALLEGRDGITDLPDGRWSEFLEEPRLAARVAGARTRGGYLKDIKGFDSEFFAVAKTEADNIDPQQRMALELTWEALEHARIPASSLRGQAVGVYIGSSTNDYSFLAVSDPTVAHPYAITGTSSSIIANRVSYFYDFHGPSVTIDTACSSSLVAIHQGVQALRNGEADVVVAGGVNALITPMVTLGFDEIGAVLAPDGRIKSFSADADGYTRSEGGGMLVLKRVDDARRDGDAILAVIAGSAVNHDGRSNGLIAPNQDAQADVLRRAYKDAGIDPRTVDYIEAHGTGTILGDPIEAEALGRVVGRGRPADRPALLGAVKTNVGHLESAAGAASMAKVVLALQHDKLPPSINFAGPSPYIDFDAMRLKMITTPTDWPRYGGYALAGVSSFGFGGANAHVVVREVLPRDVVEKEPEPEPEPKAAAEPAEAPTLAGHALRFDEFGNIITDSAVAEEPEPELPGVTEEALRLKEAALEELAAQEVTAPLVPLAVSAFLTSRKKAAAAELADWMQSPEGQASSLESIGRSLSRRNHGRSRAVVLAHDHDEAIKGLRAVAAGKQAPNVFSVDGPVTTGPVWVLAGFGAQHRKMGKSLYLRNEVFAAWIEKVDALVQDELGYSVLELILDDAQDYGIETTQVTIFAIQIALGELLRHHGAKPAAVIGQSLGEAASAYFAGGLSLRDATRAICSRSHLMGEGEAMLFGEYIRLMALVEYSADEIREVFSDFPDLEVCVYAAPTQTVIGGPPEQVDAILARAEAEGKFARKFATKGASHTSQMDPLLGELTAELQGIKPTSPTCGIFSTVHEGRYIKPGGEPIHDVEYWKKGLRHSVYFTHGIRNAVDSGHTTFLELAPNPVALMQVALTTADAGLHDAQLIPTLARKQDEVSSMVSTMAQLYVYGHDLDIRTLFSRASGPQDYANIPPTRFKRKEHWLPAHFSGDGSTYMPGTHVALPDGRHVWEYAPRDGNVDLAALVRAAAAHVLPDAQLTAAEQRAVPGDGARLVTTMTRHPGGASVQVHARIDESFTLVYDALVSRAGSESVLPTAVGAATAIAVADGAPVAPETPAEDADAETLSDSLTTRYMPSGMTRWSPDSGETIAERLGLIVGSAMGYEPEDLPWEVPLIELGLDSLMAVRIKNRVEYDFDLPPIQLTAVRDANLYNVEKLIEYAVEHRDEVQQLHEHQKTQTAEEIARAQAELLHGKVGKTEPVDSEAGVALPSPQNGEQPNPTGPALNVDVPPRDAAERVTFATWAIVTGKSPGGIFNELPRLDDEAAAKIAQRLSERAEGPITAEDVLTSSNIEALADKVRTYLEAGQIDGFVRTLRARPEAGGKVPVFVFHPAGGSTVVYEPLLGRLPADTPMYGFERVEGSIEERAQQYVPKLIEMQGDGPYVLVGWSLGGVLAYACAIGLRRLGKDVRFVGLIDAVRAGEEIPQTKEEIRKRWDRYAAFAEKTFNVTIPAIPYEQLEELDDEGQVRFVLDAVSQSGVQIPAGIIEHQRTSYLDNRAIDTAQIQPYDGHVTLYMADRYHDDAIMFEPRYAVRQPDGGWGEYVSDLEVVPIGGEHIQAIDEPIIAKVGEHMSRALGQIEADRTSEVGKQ

A: 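ClpP1P2, Mycobacterium tuberculosis (UniProt P9WPC5 and UniProt P9WPC3). Protease assay of ClpP1P2, read by the AMC dye that it sets free. Compounds at 50 µM. Direction is inferred from only a few compounds that gave an IC50; most scored high, so higher reads as stronger inhibition. Most other retested compounds had strongly negative values. Size under these conditions: about 69,000 compounds, about 10 of them at 50% or above in at least one test.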
B: 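Enzyme assay of the thioesterase domain of polyketide synthase 13; the read-out is not stated. Target: Polyketide synthase Pks13, Mycobacterium tuberculosis (UniProt I6X8D2). Compounds at 30 µM. Higher reads as stronger inhibition (inferred from which compounds were picked for retests). Of about 67,000 compounds tested this way, about 300 (0.46%) reached 50% or more in at least one test.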

Results are given as percent effect. How 0% and 100% were set is not recorded. Most values in the screen are low, and negative values occur. Compounds were drawn at random from those tested, without regard to their results.

Compound	A	B
Cc1ccc(-c2cc(C(=O)NCCC3=CCCCC3)[nH]n2)o1	-4.901%	-39.58%
CC1(C)O[C@@](C)([C@H]2CC3(CCN(c4cnccn4)CC3)CO2)CC[C@@H]1O	-2.085%	-3.993%
CC(NCc1ccncc1)c1ccc(N2CCN(C)CC2)c(F)c1 (centres undefined)	-12.45%	7.375%
COc1cccc(OCc2cc(C(=O)N3CC(O)C3)n[nH]2)c1	-8.024%	-10.86%
N#Cc1ccc(C2CC(=O)Nc3c(C(=O)O)nsc32)cc1 (centres undefined)	0.6117%	-3.637%
O=C(c1ccc(-n2cccn2)nc1)N1CCCN(c2cccnn2)CC1	1.026%	-14.57%
CC(Cn1cccn1)NC(=O)NCCc1cccs1 (centres undefined)	-13.09%	-13.17%
CNC(=O)NC(=O)CN1CCC(c2cccc(F)c2)C1 (centres undefined)	-3.362%	0.5679%
COc1ccc(C)c2c1N(C(=O)c1cnc(C)s1)CCC2	-14%	-3.991%
OC[C@@H]1CCCN1c1ccc(-c2nc(COc3ccccc3)no2)cn1	0.1774%	-3.925%
O=C1[C@H]2CC[C@H](CN(S(=O)(=O)c3ccccc3)C2)N1Cc1cscn1	-12.08%	-15.96%
O=C(NCc1ccccn1)N1CC=C(c2ccccc2)CC1	4.613%	3.511%
CCS(=O)(=O)N1CCC2(CC1)CC(OCC1CC1)CO2 (centres undefined)	8.497%	-20.08%
COc1cc(CCO)c(OC)c2c1OCO2	14.4%	-20.93%
COc1ccccc1-c1ccccc1CC1(C(=O)O)CCNCC1	-21.12%	-6.555%
Cc1cccc(CN2CCc3nnc(Cn4cccc4)n3CC2)n1	-1.143%	-17.71%
CN1CCN(c2ccc3ccc(C(=O)N4CCCCO4)cn23)CC1	-2.22%	-18.18%
c1cc(-c2cn[nH]c2)ccc1CN1CCNCC1	-11.04%	-11.09%
Cc1c(NC(=O)NCCO)cccc1OC1CCCC1	3.273%	-32.26%
CN(C)c1cc(C(=O)N2CCN(c3nccs3)CC2)ccn1	-4.211%	-21.47%
Cc1cccc(CN2CCO[C@@H]3CC(COc4ccccn4)C[C@H]32)n1 (some centres undefined)	0.1673%	15.37%
Cc1noc([C@H]2C[C@H]3OCC[C@H]3N(S(C)(=O)=O)C2)n1	6.44%	12.91%
CO[C@@H]1CN(c2ccccc2)S(=O)(=O)[C@@]12CCN(Cc1ccccc1)C2	-10.18%	-5.595%
Cc1cc(NC(=O)Cn2ncc(Br)c2C)no1	-22.32%	-7.117%
Cc1cc(C[S+]([O-])Cc2ccccc2C)no1 (centres undefined)	-13.76%	-11.35%
Cc1cccc(=O)n1CCC(=O)N1CC[C@](C)(O)[C@H](C)C1	-2.801%	-2.777%
CCN1CCN(C[C@H]2CC[C@@H](Cc3ccc4c(c3)OCO4)O2)CC1	-1.14%	-16.19%
Cc1nccn1-c1ccc(C(C)NCc2ncc[nH]2)cc1 (centres undefined)	-5.931%	7.563%
Cc1cc(-c2cccnc2)nc(C2CCCN2S(C)(=O)=O)n1 (centres undefined)	5.253%	6.041%
Cn1cc(-c2ccnc(NCC3CCN(Cc4ccccc4)C3)n2)cn1 (centres undefined)	-22.92%	60.87%
O=C(c1ccccn1)N1CCC2(CC1)COC(COCC1CCCC1)C2 (centres undefined)	6.258%	-7.869%
Cc1nc(C)n(CC2CN(CCOc3ccccc3F)CCO2)n1 (centres undefined)	0.6341%	-18.32%
CCSc1ncc(-c2nccn2CCN(C)C)cn1	9.506%	-18.28%
CN(C)c1cccc(CNCc2ccc(N3CCOCC3)cc2)c1	-1.552%	-0.4202%
OC1(Cn2ccc3ccncc32)CCN(Cc2ccccn2)CC1	-4.308%	-60.37%
COCCN1CCOCC12CCN(C(=O)c1c[nH]c3ccccc13)CC2	6.06%	-15.79%
COc1cc(CN(C)[C@@H]2COC[C@H]2c2ccc(F)cc2)cc(OC)c1	-2.105%	8.301%
c1cncc(C2=NOC3(CCN(Cc4c[nH]c5ccccc45)CC3)C2)c1	21.57%	-19.76%
COc1ccccc1C(=O)N1CCC(Oc2ccc(C#N)cn2)CC1	-8.155%	-1.486%
O=C(NC1CC1)[C@@H]1CCO[C@@H]2CCN(Cc3ccsc3)C[C@H]21	-5.209%	-16.08%
CCOc1ccc(SCCNS(=O)(=O)CC)cc1	-2.908%	3.701%
O=C(c1ccccn1)N1CCC(Oc2ncccc2Cl)CC1	-11.59%	-16.48%
COC(=O)CCCNC(=O)N1CCc2c([nH]c3ccc(Cl)cc23)C1	7.126%	-3.923%
Cc1nc(-c2ccc(CC(=O)N3CCN(C(=O)C4CC4)CC3)cc2)cs1	7.62%	-10.71%
Cc1ncsc1C(=O)Nc1ccccn1	-5.428%	-0.1826%
O=C(c1ccncc1)N1CCC2(CC1)C(=O)Nc1ccccc12	5.513%	-28.9%
CCS(=O)(=O)Nc1cnn(Cc2cccc(Cl)c2)c1	-3.088%	-1.959%
CC(=O)Nc1ccc2nc(-c3nccn3CC(C)(C)CO)ccc2c1	-2.472%	31.81%
Cn1cccc1C(CNC(=O)c1ccc(F)cc1F)N1CCCCCC1 (centres undefined)	0.5426%	-11.74%
O=C(c1ccc(S(=O)(=O)N2CCSCC2)cc1)N1CCCCCC1	15.75%	-17.97%
Cc1ccoc1C(=O)N1C[C@@H]2COC[C@]2(COCc2cccnc2)C1	-1.306%	-3.656%
CCN(CC)c1ncccc1CNC(=O)c1cnn(CC)c1	0.9238%	0.2152%
Cc1nc(CN(C)C(=O)c2cc(C)sc2NC(=O)C(C)(C)C)no1	-4.897%	-14.7%
COCC(=O)N1CCC(c2cc(N(C)C)cc(C)n2)CC1	-20.83%	-9.209%

The first 4 entries again:

Compound	A	B
Cc1ccc(-c2cc(C(=O)NCCC3=CCCCC3)[nH]n2)o1	-4.901%	-39.58%
CC1(C)O[C@@](C)([C@H]2CC3(CCN(c4cnccn4)CC3)CO2)CC[C@@H]1O	-2.085%	-3.993%
CC(NCc1ccncc1)c1ccc(N2CCN(C)CC2)c(F)c1 (centres undefined)	-12.45%	7.375%
COc1cccc(OCc2cc(C(=O)N3CC(O)C3)n[nH]2)c1	-8.024%	-10.86%

Measurements from “University of Dundee, Small-Polar-MMV Screening Library” (2021), ChEMBL document CHEMBL3988442.